Results as given in paper PMC4337420.

Target: GST-tagged FoxO fragment: 35 amino acid Usp binding region (Drosophila melanogaster)
Test: pull-down; GST-pulldown in vitro: GST-tagged FoxO (full length, fragments or point mutants) purified on Glutathione Sepharose 4B as bait; Flag-tagged Usp or EcR detected with anti-Flag M2; source of the Flag-tagged proteins not told

- binding: binds
B1: Flag-tagged Ultraspiracle (Usp), full length (protein, UniProt P20153 1-508)
chain: MDNCDQDASFRLSHIKEEVKPDISQLNDSNNSSFSPKAESPVPFMQAMSMVHVLPGSNSASSNNNSAGDAQMAQAPNSAGGSAAAAVQQQYPPNHPLSGSKHLCSICGDRASGKHYGVYSCEGCKGFFKRTVRKDLTYACRENRNCIIDKRQRNRCQYCRYQKCLTCGMKREAVQEERQRGARNAAGRLSASGGGSSGPGSVGGSSSQGGGGGGGVSGGMGSGNGSDDFMTNSVSRDFSIERIIEAEQRAETQCGDRALTFLRVGPYSTVQPDYKGAVSALCQVVNKQLFQMVEYARMMPHFAQVPLDDQVILLKAAWIELLIANVAWCSIVSLDDGGAGGGGGGLGHDGSFERRSPGLQPQQLFLNQSFSYHRNSAIKAGVSAIFDRILSELSVKMKRLNLDRRELSCLKAIILYNPDIRGIKSRAEIEMCREKVYACLDEHCRLEHPGDDGRFAQLLLRLPALRSISLKCQDHLFLFRITSDRPLEELFLEQLEAPPPPGLAMKLE

No constants are given. Whether binding was seen depends on the method and setting. Binding seen in cells or lysates may run through a third protein. Binding calls can cover weak binding; strength is not graded here. Sequences can lack the tags named with a protein.
